No constants are given. Whether binding was seen depends on the method and setting. In cells and extracts the contact can be indirect. Some results given as binding are weak or reduced against the parent protein; the word gives no strength. Each block holds one substance with its values, some of them ahead of it.
Columns and labels:
[1] = biological target: PML-IV expressed from pEYFP-N1-PML (UniProt P29590); assay: FRET or BRET; CFP/YFP fusions cotransfected in equal amounts into Huh7 cells in 96-well plates, with or without prcccDNA/Cre; 48 h after transfection fluorescence read on a Tecan microplate reader; FRET ratio
[2] = biological target: endogenous promyelocytic leukemia protein (PML) (human (endogenous in Huh7)) (UniProt P29590); assay: co-IP; endogenous proteins; Huh7 cells transfected with or without prcccDNA/Cre; 48 h; immunoprecipitation with anti-PML or control IgG; blot with anti-FoxO4 or anti-PML
[3] = biological target: PML-IV expressed from pECFP-N1-PML (UniProt P29590); assay: FRET or BRET; CFP/YFP fusions cotransfected in equal amounts into Huh7 cells in 96-well plates, with or without prcccDNA/Cre; 48 h after transfection fluorescence read on a Tecan microplate reader; FRET ratio
PML-IV-Flag = PML-IV-Flag (UniProt P29590); assay: co-IP; FoxO4-HA and PML-Flag cotransfected into Huh7 cells with or without rcccDNA; 48 h; lysis in 1% NP-40, 0.5% sodium deoxycholate, 150 mM NaCl, 20 mM Tris-HCl pH 7.4; immunoprecipitation with anti-Flag M2 agarose or control IgG, 4°C overnight; blot with anti-HA

Chains of the proteins cited; added tags and fusions are not shown. Lines headed by an entry give the natural chain unless they say otherwise; changes in a name come on top. A line that says so, or that is headed by a name, gives the form on record, which may keep a tag or linker.
UniProt P29590: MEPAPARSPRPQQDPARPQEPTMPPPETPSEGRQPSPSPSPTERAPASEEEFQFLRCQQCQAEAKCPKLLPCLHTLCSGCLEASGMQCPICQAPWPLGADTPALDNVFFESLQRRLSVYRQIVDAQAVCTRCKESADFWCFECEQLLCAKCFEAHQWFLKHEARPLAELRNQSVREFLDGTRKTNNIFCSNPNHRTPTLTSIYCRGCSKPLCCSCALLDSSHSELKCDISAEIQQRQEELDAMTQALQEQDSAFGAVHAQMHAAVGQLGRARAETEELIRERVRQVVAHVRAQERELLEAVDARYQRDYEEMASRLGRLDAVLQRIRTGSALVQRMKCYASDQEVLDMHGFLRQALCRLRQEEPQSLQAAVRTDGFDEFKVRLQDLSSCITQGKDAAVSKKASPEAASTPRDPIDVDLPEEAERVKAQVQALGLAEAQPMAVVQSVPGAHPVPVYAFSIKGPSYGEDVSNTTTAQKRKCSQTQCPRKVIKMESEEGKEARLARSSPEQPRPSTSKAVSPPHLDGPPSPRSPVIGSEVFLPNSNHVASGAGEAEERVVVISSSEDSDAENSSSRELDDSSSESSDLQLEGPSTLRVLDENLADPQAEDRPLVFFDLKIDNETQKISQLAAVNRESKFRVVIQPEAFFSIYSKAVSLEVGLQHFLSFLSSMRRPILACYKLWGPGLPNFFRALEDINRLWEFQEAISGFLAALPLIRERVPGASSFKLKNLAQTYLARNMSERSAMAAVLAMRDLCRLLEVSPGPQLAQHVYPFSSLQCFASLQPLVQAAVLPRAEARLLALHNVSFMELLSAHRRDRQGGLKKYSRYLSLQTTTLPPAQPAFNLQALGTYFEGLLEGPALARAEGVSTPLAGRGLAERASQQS
PML-IV-Flag (P29590, form named): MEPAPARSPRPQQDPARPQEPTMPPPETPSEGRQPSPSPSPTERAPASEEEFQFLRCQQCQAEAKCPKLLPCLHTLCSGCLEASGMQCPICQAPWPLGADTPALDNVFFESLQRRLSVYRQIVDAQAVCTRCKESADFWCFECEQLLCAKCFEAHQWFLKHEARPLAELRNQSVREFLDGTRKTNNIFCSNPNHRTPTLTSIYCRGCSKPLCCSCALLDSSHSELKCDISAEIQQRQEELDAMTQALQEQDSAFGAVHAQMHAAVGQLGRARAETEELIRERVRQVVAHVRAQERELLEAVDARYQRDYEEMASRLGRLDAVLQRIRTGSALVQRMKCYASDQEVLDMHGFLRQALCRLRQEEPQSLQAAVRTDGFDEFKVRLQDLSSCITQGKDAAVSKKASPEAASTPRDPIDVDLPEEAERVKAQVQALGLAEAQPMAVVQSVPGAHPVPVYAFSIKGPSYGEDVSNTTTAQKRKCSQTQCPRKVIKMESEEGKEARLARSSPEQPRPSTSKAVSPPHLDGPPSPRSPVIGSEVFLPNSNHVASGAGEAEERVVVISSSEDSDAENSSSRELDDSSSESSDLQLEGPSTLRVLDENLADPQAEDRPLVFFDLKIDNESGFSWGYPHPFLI

binding [1]: binds
Substance: FoxO4 expressed from pECFP-N1-FoxO4 (from UniProt P98177 1-505)

binding [2]: binds
Substance: endogenous FoxO4 (from UniProt P98177 1-505)

binding [3]: binds
Substance: FoxO4 expressed from pEYFP-N1-FoxO4 (from UniProt P98177 1-505)

binding (PML-IV-Flag): binds
Substance: FoxO4-HA (from UniProt P98177 1-505)
